## Assay results

From PubChem BioAssay record AID504749 (NCATS, 2011).

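A panel of P. falciparum strains inside erythrocytes is exposed to compounds for three days, then a DNA-binding dye reports the amount of parasite DNA.
Each compound was titrated across a series from about 0.000037 to 29 µM.
The number is the fitted AC50, the concentration giving a half-maximal change in signal; a lower value means higher potency, whether the curve shows a decrease or an increase.
Calls follow the curve class and fit quality: every row here is inconclusive, covering signal-raising curves and weak, poorly fitted, partial or highest-dose-only inhibition curves.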

Values are in µM.
All entries here are filed as inconclusive.
Only part of the assay is shown, chiefly results filed as inconclusive.
Potencies fitted to partial, single-point or poorly fitting curves are rough.

structure	condition	fitted potency (µM)	curve as filed
NC(N)=NC(=O)Cc1c(Cl)cccc1Cl	CP305	12	inhibitor, partial curve
NC(N)=NC(=O)Cc1c(Cl)cccc1Cl	SC27B	11.22	inhibitor, single point
NC(N)=NC(=O)Cc1c(Cl)cccc1Cl	PC49	11.22	inhibitor, single point
NC(N)=NC(=O)Cc1c(Cl)cccc1Cl	CP211	7.569	inhibitor, partial curve
NC(N)=NC(=O)Cc1c(Cl)cccc1Cl	CP185	11.22	inhibitor, partial curve
NC(N)=NC(=O)Cc1c(Cl)cccc1Cl	CP269	6.746	inhibitor, partial curve
NC(N)=NC(=O)Cc1c(Cl)cccc1Cl	CP194	12	inhibitor, partial curve
NC(N)=NC(=O)Cc1c(Cl)cccc1Cl	HB3	5.623	inhibitor, partial curve
NC(N)=NC(=O)Cc1c(Cl)cccc1Cl	N140	10	inhibitor, single point
NC(N)=NC(=O)Cc1c(Cl)cccc1Cl	CP297	13.46	inhibitor, partial curve
NC(N)=NC(=O)Cc1c(Cl)cccc1Cl	CP192	13.46	inhibitor, single point
NC(N)=NC(=O)Cc1c(Cl)cccc1Cl	TAB165	6.31	inhibitor, partial curve
NC(N)=NC(=O)Cc1c(Cl)cccc1Cl	PC15	5.623	inhibitor, partial curve
NC(N)=NC(=O)Cc1c(Cl)cccc1Cl	PAD	6.31	inhibitor, partial curve
NC(N)=NC(=O)Cc1c(Cl)cccc1Cl	CP203	19.01	inhibitor, single point
CO[C@H]1[C@@H](O)CC(OC2[C@@H](O)CC(OC3[C@@H](O)C[C@H](OC4CC[C@@]5(C)C(CCC6C5CC(O)[C@]5(C)[C@H](C7=CC(=O)OC7)CCC65O)C4)O[C@@H]3C)O[C@@H]2C)O[C@@H]1C (stereo partly drawn)	W2	12	inhibitor, partial curve, poor fit
CO[C@H]1[C@@H](O)CC(OC2[C@@H](O)CC(OC3[C@@H](O)C[C@H](OC4CC[C@@]5(C)C(CCC6C5CC(O)[C@]5(C)[C@H](C7=CC(=O)OC7)CCC65O)C4)O[C@@H]3C)O[C@@H]2C)O[C@@H]1C (stereo partly drawn)	DIV14	16.94	inhibitor, partial curve, poor fit
CO[C@H]1[C@@H](O)CC(OC2[C@@H](O)CC(OC3[C@@H](O)C[C@H](OC4CC[C@@]5(C)C(CCC6C5CC(O)[C@]5(C)[C@H](C7=CC(=O)OC7)CCC65O)C4)O[C@@H]3C)O[C@@H]2C)O[C@@H]1C (stereo partly drawn)	CP266	0.4256	inhibitor, full curve, poor fit
CO[C@H]1[C@@H](O)CC(OC2[C@@H](O)CC(OC3[C@@H](O)C[C@H](OC4CC[C@@]5(C)C(CCC6C5CC(O)[C@]5(C)[C@H](C7=CC(=O)OC7)CCC65O)C4)O[C@@H]3C)O[C@@H]2C)O[C@@H]1C (stereo partly drawn)	ICS	14.13	inhibitor, partial curve, poor fit
CO[C@H]1[C@@H](O)CC(OC2[C@@H](O)CC(OC3[C@@H](O)C[C@H](OC4CC[C@@]5(C)C(CCC6C5CC(O)[C@]5(C)[C@H](C7=CC(=O)OC7)CCC65O)C4)O[C@@H]3C)O[C@@H]2C)O[C@@H]1C (stereo partly drawn)	PC15	0.5623	inhibitor, full curve, poor fit
CO[C@H]1[C@@H](O)CC(OC2[C@@H](O)CC(OC3[C@@H](O)C[C@H](OC4CC[C@@]5(C)C(CCC6C5CC(O)[C@]5(C)[C@H](C7=CC(=O)OC7)CCC65O)C4)O[C@@H]3C)O[C@@H]2C)O[C@@H]1C (stereo partly drawn)	7G8	12.59	inhibitor, partial curve
CO[C@H]1[C@@H](O)CC(OC2[C@@H](O)CC(OC3[C@@H](O)C[C@H](OC4CC[C@@]5(C)C(CCC6C5CC(O)[C@]5(C)[C@H](C7=CC(=O)OC7)CCC65O)C4)O[C@@H]3C)O[C@@H]2C)O[C@@H]1C (stereo partly drawn)	PC26	0.6012	inhibitor, partial curve
CO[C@H]1[C@@H](O)CC(OC2[C@@H](O)CC(OC3[C@@H](O)C[C@H](OC4CC[C@@]5(C)C(CCC6C5CC(O)[C@]5(C)[C@H](C7=CC(=O)OC7)CCC65O)C4)O[C@@H]3C)O[C@@H]2C)O[C@@H]1C (stereo partly drawn)	CP260	15.85	inhibitor, single point
COc1ccc2cc1Oc1ccc(cc1)CC1c3c(cc4c(c3Oc3cc5c(cc3OC)CCN(C)C5C2)OCO4)CCN1C (stereo not drawn)	CP201	19.01	inhibitor, single point
COc1ccc2cc1Oc1ccc(cc1)CC1c3c(cc4c(c3Oc3cc5c(cc3OC)CCN(C)C5C2)OCO4)CCN1C (stereo not drawn)	PC15	11.22	inhibitor, single point
COc1ccc2cc1Oc1ccc(cc1)CC1c3c(cc4c(c3Oc3cc5c(cc3OC)CCN(C)C5C2)OCO4)CCN1C (stereo not drawn)	DIV30	19.01	inhibitor, single point
COc1ccc2cc1Oc1ccc(cc1)CC1c3c(cc4c(c3Oc3cc5c(cc3OC)CCN(C)C5C2)OCO4)CCN1C (stereo not drawn)	CP215	16.94	inhibitor, single point
COc1ccc2cc1Oc1ccc(cc1)CC1c3c(cc4c(c3Oc3cc5c(cc3OC)CCN(C)C5C2)OCO4)CCN1C (stereo not drawn)	JCK	11.22	inhibitor, single point
COc1ccc2cc1Oc1ccc(cc1)CC1c3c(cc4c(c3Oc3cc5c(cc3OC)CCN(C)C5C2)OCO4)CCN1C (stereo not drawn)	CP192	16.94	inhibitor, single point
COc1ccc2cc1Oc1ccc(cc1)CC1c3c(cc4c(c3Oc3cc5c(cc3OC)CCN(C)C5C2)OCO4)CCN1C (stereo not drawn)	CP329	15.1	inhibitor, single point
COc1ccc2cc1Oc1ccc(cc1)CC1c3c(cc4c(c3Oc3cc5c(cc3OC)CCN(C)C5C2)OCO4)CCN1C (stereo not drawn)	CP315	19.01	inhibitor, single point
COc1ccc2cc1Oc1ccc(cc1)CC1c3c(cc4c(c3Oc3cc5c(cc3OC)CCN(C)C5C2)OCO4)CCN1C (stereo not drawn)	FAB9	10	inhibitor, single point
CCCCCCOc1ccc(C(=N)N(CCCC)CCCC)c2ccccc12	DIV30	19.01	inhibitor, single point

4 of the entries, repeated:

With COc1ccc2cc1Oc1ccc(cc1)CC1c3c(cc4c(c3Oc3cc5c(cc3OC)CCN(C)C5C2)OCO4)CCN1C (stereo not drawn) [CP215] the assay gave fitted potency 16.94 µM (inhibitor, single point).
With COc1ccc2cc1Oc1ccc(cc1)CC1c3c(cc4c(c3Oc3cc5c(cc3OC)CCN(C)C5C2)OCO4)CCN1C (stereo not drawn) [CP201] the assay gave fitted potency 19.01 µM (inhibitor, single point).
With NC(N)=NC(=O)Cc1c(Cl)cccc1Cl [CP194] the assay gave fitted potency 12 µM (inhibitor, partial curve).
With COc1ccc2cc1Oc1ccc(cc1)CC1c3c(cc4c(c3Oc3cc5c(cc3OC)CCN(C)C5C2)OCO4)CCN1C (stereo not drawn) [CP329] the assay gave fitted potency 15.1 µM (inhibitor, single point).